Data as given in the supplement of paper PMC10735217.
Counter-ions that a name gives are not always drawn. The list shows a part of the results. Single values are uncertain here, since repeats match poorly.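 In a drug-repurposing library screen, luminescence reads luciferase driven by eight TEAD-binding elements, stably integrated into human kidney-derived cells. Compounds scoring over five robust Z scores above the plate mean are called hits.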

Tested on: HEK293A TEAD-LUC reporter
Experiment: TEAD-luciferase reporter activity (YAP activation), robust Z score vs plate; higher = stronger YAP/TEAD activation
Settings: 24 h

Structure (SMILES) | TEAD-luciferase reporter activity (compound concentration: 200 nM) | TEAD-luciferase reporter activity (compound concentration: 2 uM) | TEAD-luciferase reporter activity (compound concentration: 10 uM)
Cc1ccc(CC2SC(=O)NC2=O)cc1 (stereo not given) | inactive: -1.1 | inactive: 0.622 | inactive: -0.299
CCOC(=O)Nc1ccc2c(c1)N(C(=O)CN(C)C)c1ccccc1CC2 [tiracizine] | inactive: -0.746 | inactive: -0.278 | inactive: 0.702
CC(=O)NC1CCN(c2ccc3ncc(-c4cccc(C(F)(F)F)c4)n3n2)CC1 | inactive: -2.27 | – | inactive: -0.213
CC(C)(CO)CCCCCCC(C)(C)CO [Gemcadiol] | inactive: -0.933 | inactive: -1.34 | inactive: 0.344
NC(=O)N(O)Cc1cccc(COC(c2cccnc2)c2ccc3ccccc3c2)c1 (stereo not given) | inactive: -0.0757 | inactive: -0.713 | inactive: 0.613
Cc1ccc2c(Br)cc(Br)c(OC(=O)c3ccc4ccccc4c3)c2n1 | inactive: -0.34 | inactive: 1.73 | inactive: -0.515
Cc1nccn1Cc1csc2ccc3ccccc3c2c1=O | inactive: -1.54 | inactive: -1.8 | inactive: 2.82
Cc1cn[nH]c1 [fomepizole] | inactive: -0.679 | inactive: -0.646 | inactive: 3.75
C[C@@]12CC(N)[C@@H]1CN(c1nc3c(cc1F)c(=O)c(C(=O)O)cn3C1CC1)C2 (stereo not given in full) | inactive: 3.19 | inactive: -0.0986 | inactive: -0.637
C1CCCN(C2C3CC4CC(C3)CC2C4)CC1 (stereo not given) [Hemantane] | inactive: -0.883 | inactive: -0.594 | inactive: -0.122
CCCC(N)(CCC)CCC | inactive: -1.4 | inactive: -1.6 | inactive: 2.24
COc1ccc(NC2=C(C)C(=O)CC2)cc1OC1CC2CCC1C2 (stereo not given) | inactive: -1.71 | inactive: -0.256 | inactive: 2.19
NC(=S)NS(=O)(=O)c1ccc(N)cc1 | inactive: -0.102 | inactive: 2.25 | inactive: -0.369
C[C@@H]1C[C@H]2[C@@H]3C[C@H](F)C4=CC(=O)C=CC4(C)[C@@]3(F)[C@@H](O)CC2(C)[C@H]1C(=O)CO (stereo not given in full) | inactive: 4.16 | inactive: -0.169 | inactive: -0.0701
Cc1nc(-c2ccc(Cl)cc2)sc1C(=O)N[C@H]1CCCN(c2cccc(C(=O)O)c2)C1 | inactive: 0.0635 | inactive: 0.0719 | inactive: -0.805
Cc1ccc(S(=O)(=O)NC(=O)NC(C)(C)Cc2ccccc2)cc1 [analog of TOSIFEN] | inactive: -2.16 | inactive: -0.138 | inactive: -0.226
COc1c(Cc2c[nH]c3ccccc23)[nH]c(=O)c(CC(C)C)[n+]1[O-] | active: 5.66 | inactive: 0.0989 | inactive: 0.688
CC(=O)Oc1cccc2c1C(=O)c1c(OC(C)=O)cc(C(=O)O)cc1C2=O [diacerein (capsule)] | – | inactive: -1.38 | –
CC(=O)Oc1cccc2c1C(=O)c1c(OC(C)=O)cc(C(=O)O)cc1C2=O [diacerein (capsule), TWi Pharmaceuticals] | inactive: -2.48 | – | inactive: 1.51
C[N@+]12CCCC[C@@H]1CCC(=C(c1cccs1)c1cccs1)C2 [tiquizium bromide] | inactive: 0.154 | inactive: -1.35 | inactive: -0.906
Cc1c(NC(=O)C(C)N(C)C)c(=O)n(-c2ccccc2)n1C (stereo not given) | inactive: 0.588 | inactive: -1.85 | inactive: 1.49
C=C1C[C@H]2[C@@H]3C=C(C)C4=CC(=O)CC[C@]4(C)[C@H]3CC[C@]2(C)[C@@]1(OC(C)=O)C(C)=O [Melengestrol acetate] | inactive: 1.35 | inactive: -0.727 | inactive: 1.19
CN[C@@H](C)C(=O)N[C@H]1CN(C(=O)CC(C)C)CC[C@H]2CC[C@@H](C(=O)NC(c3ccccc3)c3ccccc3)N2C1=O | inactive: 0.878 | inactive: 1.53 | inactive: 2.02
O=C(O)CCCC(=O)N1Cc2ccccc2CC2(CCCCN2CCc2ccccc2)C1 (stereo not given) | inactive: -3.48 | – | inactive: 2.3
CCCCN(CCCC)CC(O)c1cc(-c2ccc(C(F)(F)F)cc2)nc(-c2ccc(C(F)(F)F)cc2)c1 (stereo not given) | inactive: -0.583 | inactive: -2.04 | inactive: 0.298
C#C[C@H]1CCC2C3CCC4=CC(=O)CC[C@]4(C)C3CC[C@@]21C (stereo not given in full) | inactive: -1.2 | inactive: -0.73 | inactive: -0.784
Cc1cccc(Cl)c1NC(=O)Nc1ccncc1 | inactive: -0.918 | inactive: 0.324 | inactive: 3.13
CC(=O)NCC(=O)N1Cc2ccccc2CC2(CCCN2C)C1 (stereo not given) | inactive: -0.54 | – | inactive: 0.825

Structure (SMILES) | TEAD-luciferase reporter activity (compound concentration: 200 nM) | TEAD-luciferase reporter activity (compound concentration: 2 uM) | TEAD-luciferase reporter activity (compound concentration: 10 uM)
CC(C)(F)C[C@H](N[C@@H](c1ccc(-c2ccc(S(C)(=O)=O)cc2)cc1)C(F)(F)F)C(=O)NC1(C#N)CC1 [odanacatib] | inactive: 0.0582 | inactive: -2.66 | inactive: 0.519
CCCCCCCCN1CCc2c(C)c(CC(=O)O)c(C)c(NC(=O)C(C)(C)C)c21 | inactive: -0.897 | inactive: -0.963 | inactive: -0.0468
Fc1ccc(CSSSCc2ccc(F)cc2)cc1 [Fluorapacin] | inactive: -0.368 | inactive: -0.339 | inactive: 2.49
Nc1nc2ncc(CNc3ccc(C(=O)NC(CCC(=O)O)C(=O)O)cc3)nc2c(=O)[nH]1 (stereo not given) | inactive: -0.108 | – | inactive: 3.17
Nc1nc2ncc(CNc3ccc(C(=O)NC(CCC(=O)O)C(=O)O)cc3)nc2c(=O)[nH]1 (stereo not given) [Folic acid] | – | inactive: 0.0551 | –
O=C(c1ccccc1Cl)N1CCC(C(=O)N2CCC(N3CCCC3=O)CC2)CC1 | inactive: -1.26 | – | inactive: 0.364
O=c1[nH]c([C@@H]2CCCN2)nc2c1oc1ccc(Cl)cc12 [XL413 (hydrochloride)] | inactive: -1.74 | inactive: -1.64 | inactive: -1.12
CCOC(=O)Nc1c[n+](N2CCOCC2)no1 [molsidomine] | inactive: 2.52 | inactive: -0.988 | inactive: -1.82
CCCCC/C=C/C/C=C/CCCCCCCC(=O)NC(C)c1ccccc1 (stereo not given) | inactive: -1.76 | inactive: -0.83 | inactive: -0.544
CN(C)CCc1c[nH]c2ccc(Cn3cncn3)cc12 | inactive: -0.806 | – | inactive: -1.19
CN(C)CCc1c[nH]c2ccc(Cn3cncn3)cc12 [rizatriptan wafer] | – | inactive: -0.0266 | –
C=C1Nc2ccccc2C(=O)N1c1ccccc1CC | inactive: -0.573 | inactive: -0.798 | inactive: 0.838
O=S1(=O)CCN(Cc2cc(NCC3CCOCC3)c3[nH]c(-c4ccccc4)cc3c2)CC1 [NecroX-5] | – | inactive: -1.05 | –
O=S1(=O)CCN(Cc2cc(NCC3CCOCC3)c3[nH]c(-c4ccccc4)cc3c2)CC1 [Necrosis Inhibitor-5] | inactive: 1.15 | – | inactive: -1.32
NCC(=O)N1CCCC2(Cc3ccccc3CN2C(=O)C2CCCC2)C1 (stereo not given) | inactive: -0.445 | – | inactive: -0.921
c1ccc(Cn2cc(CCc3ccncc3)c3ccccc32)cc1 [Benzindopyrine] | inactive: -1.19 | inactive: 0.799 | –
COC(=O)N1CC[C@@H]2[C@H]1CCC[C@@]2(O)C#Cc1cccc(C)c1 [Mavoglurant] | inactive: -0.844 | inactive: -1.85 | inactive: -0.538
OCC1O[C@H](O[C@@H]2C(CO)NCC(O)C2O)C(O)C(O)[C@@H]1O (stereo not given in full) | inactive: -0.391 | inactive: -0.833 | inactive: -2.54
CN(C)Cc1ccc(CSCCNc2nnccc2[N+](=O)[O-])o1 | inactive: -0.672 | inactive: -0.547 | inactive: 0.91
CCCC(=O)O[C@]1(C(=O)CSC(=O)CC)CC[C@H]2[C@@H]3CCC4=CC(=O)CC[C@]4(C)[C@H]3[C@@H](O)C[C@@]21C [Butixocort propionate] | inactive: 0.348 | inactive: 0.671 | inactive: 2.19
CC(C)=CCC[C@]1(C)[C@@H](CC=C(C)C)C[C@]2(CC=C(C)C)C(=O)C(CC=C(C)C)=C(O)[C@@]1(C(=O)C(C)C)C2=O [Hyperforin-DCHA] | – | inactive: -0.817 | –
CC(C)=CCC[C@]1(C)[C@@H](CC=C(C)C)C[C@]2(CC=C(C)C)C(=O)C(CC=C(C)C)=C(O)[C@@]1(C(=O)C(C)C)C2=O | inactive: -0.731 | – | inactive: 0.896
OC(CNc1ccccn1)c1ccccc1 (stereo not given) | inactive: 0.16 | inactive: -0.492 | inactive: 0.0526
C[C@@H](O)[C@@H]1NC(=O)[C@H](CCCCN)NC(=O)[C@@H](Cc2c[nH]c3ccccc23)NC(=O)[C@H](Cc2ccccc2)NC(=O)[C@@H](NC(=O)[C@H](N)Cc2ccccc2)CSSC[C@@H](C(=O)N[C@H](CO)[C@@H](C)O)NC1=O [Octreotide acetate] | – | inactive: 0.113 | –
C[C@@H](O)[C@@H]1NC(=O)[C@H](CCCCN)NC(=O)[C@@H](Cc2c[nH]c3ccccc23)NC(=O)[C@H](Cc2ccccc2)NC(=O)[C@@H](NC(=O)[C@H](N)Cc2ccccc2)CSSC[C@@H](C(=O)N[C@H](CO)[C@@H](C)O)NC1=O [Octreotide] | inactive: -1.06 | – | inactive: 0.526
C#Cc1cccc(Nc2ncnc3cc(OCCOC)c(OCCOC)cc23)c1 [erlotinib] | inactive: -0.677 | inactive: -1.62 | inactive: -1.47
COc1ccc(C(=O)N2CCC(C(=O)N3CCC(N4CCCC4=O)CC3)CC2)cc1 | active: 13.6 | – | inactive: 0.224
